# According to PubChem BioAssay AID504842 (National Center for Advancing Translational Sciences (NCATS), 2011):
# Screen size: about 330,000 compounds; about 100 (0.03%) were called active. This list was built around the results that the source calls inconclusive (neither active nor inactive); the mix of calls is not that of the screen. The call rests on the fitted dose curve; in most records, active means well fitted inhibition curve with a large enough effect; inconclusive means small, poorly fitted or top-dose-only effect; inactive means flat fitted curve, though single readings scatter. Potencies beside an inconclusive call are fits to weak or partial responses and may not hold up.
# System: Chaperonin Mm-Cpn (Methanococcus maripaludis)
# Test: Inhibitors of TCP-1 ring complex (TRiC) of Methanococcus maripaludis (MmCpn): qHTS; further: nearly all actives have a fitted effect of over 80% in size;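 on Potency: enzyme at 25 nM with ATP substrate at 10 µM during the reaction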
# Conditions: purified Mm-Cpn ATPase, ADP Transcreener TR-FRET; activity, negative = inhibition: at the top concentration
# Procedure, shortened: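 Reaction buffer contained 30 mM Tris pH 7.4, 100 mM KCl, 5 mM MgCl2 and 1 mM DTT. Mm-CPN (25 nM final) hydrolysed 10 uM ATP over 30 min at 37°C; ADP was read by HTRF.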
# On the % scale 0 is the no-effect control and ±100 the full control effect; potency means the concentration at half of the fitted maximal effect.
SMILES,Potency,"activity, negative = inhibition"
COc1ccccc1OCC(=O)/C=C1/N(C)c2ccccc2C1(C)C,"inconclusive: 100 µM [inhibitor, single point]",
O=C(OCn1ncc(Cl)c(Cl)c1=O)c1ccccc1Cl,"inconclusive: 63.1 µM [inhibitor, single point]",
CC(C)(C)OC(=O)C[C@@H]1C/C=C\C[C@H](CC(=O)N[C@H](CO)Cc2ccccc2)C(=O)N[C@@H](Cc2ccccc2)COC1=O,"inconclusive: 708 µM [inhibitor, partial curve, poor fit]",
Cc1ccc(-c2nnn(CC(=O)N(Cc3ccccc3)C(C(=O)NC3CCCC3)c3ccncc3)n2)o1 (configuration not stated),,inactive: -0.0242%
c1coc(CN(Cc2ccco2)c2ncnc3c2oc2ccccc23)c1,,inactive: -1.02%
O=S(=O)(c1ccccc1)N1N=C(c2ccc(Br)cc2)CC1c1ccco1 (configuration not stated),,inactive: -0.273%
CCOc1ccc(NC(=O)C(=O)NCC2CCCN2CC)cc1 (configuration not stated),"inconclusive: 14.1 µM [inhibitor, single point]",
CC(C)n1c(C(=O)OCC(=O)NCc2ccc3c(c2)OCO3)cc2occc21,"inconclusive: 79.4 µM [inhibitor, single point]",
c1ccc(-n2c(-c3ccco3)nnc2-c2ccco2)cc1,,inactive: -0.331%
Cc1noc(C)c1CCC(=O)N1CCCC(CCC(=O)NCc2ccccc2F)C1 (configuration not stated),"inconclusive: 22.4 µM [inhibitor, single point]",
Oc1c(C(c2ccc(F)cc2)N2CCc3ccccc3C2)sc2ncnn12 (configuration not stated),"inconclusive: 14.1 µM [inhibitor, single point]",
CCC1CCCCN1C(=O)c1ccc(OC)c(OC2CCN(C(C)C)CC2)c1 (configuration not stated),"inconclusive: 17.8 µM [inhibitor, single point]",
COc1cc(NC(=O)C2CCCN2S(=O)(=O)c2cccc3cccnc23)cc(OC)c1OC (configuration not stated),"inconclusive: 100 µM [inhibitor, single point]",
CC1CCCCC1NC(=S)NC(=O)c1sc2ccccc2c1Cl (configuration not stated),"inconclusive: 70.8 µM [inhibitor, partial curve]",
CCCCC(C(=O)O)C(C)CC(=O)Nc1nncs1 (configuration not stated),"inconclusive: 50.1 µM [inhibitor, single point]",
O=c1c(C(c2ccc(O)cc2)c2c(O)nc3n(c2=O)CCS3)c(O)nc2n1CCS2,,inactive: -1.2%
CC(C)N(Cc1ccccc1)C(=O)CN1C(=O)NC(Cc2ccccc2)(c2ccccc2)C1=O (configuration not stated),"inconclusive: 50.1 µM [inhibitor, single point]",
Cc1ccc(OCC(=O)Nc2ccc(S(=O)(=O)Nc3cc(C)nc(C)n3)cc2)cc1,"inconclusive: 10 µM [inhibitor, single point]",
COc1ccc(-c2nn(-c3ccccc3)cc2/C=C/C(=O)O)cc1[N+](=O)[O-],"inconclusive: 50.1 µM [inhibitor, single point]",
CCC(Cc1ccccc1)NC(=O)CCNS(=O)(=O)c1cc(Br)cnc1N (configuration not stated),"inconclusive: 44.7 µM [inhibitor, single point]",
O=C(/C=C/C(=O)N1CCc2ccccc2C1)N1CCc2ccccc2C1,,inactive: 0.683%
O=C(NCc1ccccc1)c1c[nH]c2ccccc2c1=O,,inactive: -1.74%
CC(C)NC(=O)c1cccc(C(F)(F)F)c1,"inconclusive: 56.2 µM [inhibitor, single point]",

# Full records from above:
# O=c1c(C(c2ccc(O)cc2)c2c(O)nc3n(c2=O)CCS3)c(O)nc2n1CCS2 as listed: activity, negative = inhibition: inactive: -1.2%
# COc1ccc(-c2nn(-c3ccccc3)cc2/C=C/C(=O)O)cc1[N+](=O)[O-] as listed: Potency: inconclusive: 50.1 µM [inhibitor, single point]

# (cont.)

SMILES,Potency,"activity, negative = inhibition"
O=C1NC(=Nc2ccccc2)S/C1=C\c1cccn1-c1ccccc1,"inconclusive: 12.6 µM [inhibitor, single point]",
C=CCN(CC=C)C(=O)c1c(OC)cccc1OC,,inactive: 0.849%
O=C(NC1CCCC1)C1CCC(CNS(=O)(=O)c2ccc(F)cc2)CC1 (configuration not stated),"inconclusive: 39.8 µM [inhibitor, single point]",
Cc1cc2cc(C#N)c(N3CCOCC3)nc2cc1Cl,"inconclusive: 11.2 µM [inhibitor, single point]",
COc1ccc(/C=N/Nc2cn[nH]c(=O)c2Cl)cc1,"inconclusive: 100 µM [inhibitor, single point]",
COc1ccc(CN(C(=O)c2cc(=O)c3cc(C)cc(C)c3o2)C2CCS(=O)(=O)C2)cc1 (configuration not stated),"inconclusive: 17.8 µM [inhibitor, single point]",
O=C(CCc1ccc(S(=O)(=O)N2CCOCC2)cc1)Nc1nc(COc2ccccc2)cs1,,inactive: -1.26%
C=CCOc1c(Cl)cc(CNc2ccc(N(C)C)cc2)cc1OC,active: 15.8 µM,
CCN(CC)C(=O)CSC1=Nc2ccccc2C2=NC(Cc3c[nH]c4ccccc34)C(=O)N12 (configuration not stated),,inactive: -2.26%
CCC1C(=NO)C(CC)C(c2ccccc2)NC1c1ccccc1 (configuration not stated),,inactive: 1.19%
COc1ccc(Cl)cc1-n1c(N)c(C(N)=O)sc1=S,,inactive: -0.556%
CCOC(=O)c1c(C)[nH]c(C(=O)OCC(=O)Nc2cc(C)nn2-c2ccccc2)c1C,"inconclusive: 22.4 µM [inhibitor, single point]",
CCOC(=O)C1=C(C)NC(SCC(N)=O)=C(C#N)C1c1cccs1 (configuration not stated),"inconclusive: 56.2 µM [inhibitor, single point]",
O=C(O)Cc1ccc(Nc2cnn(C34CC5CC(CC(CC(=O)O)(C5)C3)C4)c(=O)c2Cl)cc1,"inconclusive: 56.2 µM [inhibitor, single point]",
Cc1nnc(SCCN2CCOCC2)c2nn(-c3ccccc3F)c(C)c12,"inconclusive: 200 µM [inhibitor, partial curve, poor fit]",
CCC(NS(=O)(=O)c1cccs1)c1ccc(C)cc1 (configuration not stated),"inconclusive: 20 µM [inhibitor, single point]",
FC(F)(F)c1nc2cc3nc4ccccc4[nH]c3cc2n1,"inconclusive: 141 µM [inhibitor, partial curve, poor fit]",
CCC(=O)Nc1c(C(=O)Nc2ccc3c(c2)OCCO3)oc2ccccc12,,inactive: -2.64%
Cc1cc2cc(CNC(=S)NC3CCCCC3)ccc2n1C,"inconclusive: 100 µM [inhibitor, partial curve, poor fit]",
Cc1cccc(NC(=O)CSc2nc3nc4c(cc3c(=O)n2-c2ccccc2)CCCC4)c1,"inconclusive: 79.4 µM [inhibitor, single point]",
CCC[C@@H](CN[C@@H](CNC)C(C)C)NCCCCc1ccccc1,"inconclusive: 316 µM [inhibitor, partial curve, poor fit]",
FC(F)(F)c1nc2ccccc2nc1N/N=C/c1ccc(Cl)cc1,"inconclusive: 89.1 µM [inhibitor, single point]",
COCCN1CCC(CNCc2cn[nH]c2-c2ccc(C)c(C)c2)C1 (configuration not stated),,inactive: -4.64%

SMILES,Potency,"activity, negative = inhibition"
CN(C)CCOC(=O)C12CC3(C)CC(C)(CC(C)(C3)C1)C2,,inactive: -0.752%
CC(=O)NC(CC(=O)Nc1nc(-c2ccccc2)c(C(C)=O)s1)c1ccccc1 (configuration not stated),"inconclusive: 708 µM [inhibitor, partial curve, poor fit]",
NS(=O)(=O)c1cccc(NC(=O)COC(=O)C2(c3cccc(F)c3)CCCC2)c1,"inconclusive: 100 µM [inhibitor, single point]",
COc1ccc(COC(=O)c2ccc(S(=O)(=O)N3CCC(C)CC3)cc2)cc1,"inconclusive: 20 µM [inhibitor, single point]",
CCOC(=O)c1c(-c2ccc(C)o2)csc1NC(=O)CSc1nnnn1-c1ccccc1,"inconclusive: 200 µM [inhibitor, partial curve, poor fit]",
O=C(Cn1nnc(-c2ccccc2)n1)Nc1cccc(S(=O)(=O)N2CCCC2)c1,,inactive: 1.75%
O=C(CN1CCN(Cc2ccccc2)CC1)N/N=C/C=C/c1ccco1,"inconclusive: 50.1 µM [inhibitor, single point]",
Cc1nn(C)cc1C(C)NC(=O)c1cc(COc2cccc3cnccc23)on1 (configuration not stated),"inconclusive: 89.1 µM [inhibitor, single point]",
NS(=O)(=O)c1cc(C(=O)OC2CCOC2=O)ccc1Cl (configuration not stated),"inconclusive: 22.4 µM [inhibitor, single point]",
COc1ccccc1NS(=O)(=O)c1ccc2c(c1)NC(=O)C(C)S2 (configuration not stated),"inconclusive: 28.2 µM [inhibitor, single point]",
NC(=O)c1ccc(NC(=O)COC(=O)/C=C/c2cn(-c3ccccc3)nc2-c2cccnc2)cc1,"inconclusive: 100 µM [inhibitor, partial curve, poor fit]",
CN(C)S(=O)(=O)c1cccc(NC(=O)COC(=O)c2cc(-c3cccc(Br)c3)nc3ccccc23)c1,"inconclusive: 141 µM [inhibitor, partial curve]",
O=C(Nc1cccc([N+](=O)[O-])c1)NC1CCCCCCC1,,inactive: 3.63%
Cn1nnnc1Sc1ncnc2scc(-c3cccc4c3sc3ccccc34)c12,"inconclusive: 100 µM [inhibitor, single point]",
COc1ccc(NC(=O)CSc2nnc(NC(=O)C3CCC3)s2)c(OC)c1,"inconclusive: 63.1 µM [inhibitor, single point]",
O=C(Nc1ccc(-c2cnco2)cc1)c1ccc(F)cc1F,"inconclusive: 100 µM [inhibitor, single point]",
Cc1ccc2[nH]cc(CCNS(=O)(=O)c3ccc(F)cc3)c2c1,"inconclusive: 14.1 µM [inhibitor, single point]",
CCCCn1nnnc1SCC(=O)N1CCCC1,"inconclusive: 25.1 µM [inhibitor, single point]",
O=C(CC1C(=O)NCCN1C/C=C/c1ccccc1)NCCc1cnccn1 (configuration not stated),,inactive: 2.63%
CCOC(=O)COc1c(Cl)cc(C2NC(=S)NC(c3ccccc3)=C2C(C)=O)cc1OCC (configuration not stated),"inconclusive: 89.1 µM [inhibitor, single point]",
